Test results published in article PMC9440223.
No constants are given. Whether binding was seen depends on the method and setting. For some of these results: In cells and extracts the contact can be indirect. Some results given as binding are weak or reduced against the parent protein; the word gives no strength. For some of these results: Tags and fused reporters may be left off the sequences shown. Values belong to the molecule of their own block, whether it stands above or below them.

Protein sequences, listed by entry. Tags and fused reporters are not part of them.
UniProt P35222: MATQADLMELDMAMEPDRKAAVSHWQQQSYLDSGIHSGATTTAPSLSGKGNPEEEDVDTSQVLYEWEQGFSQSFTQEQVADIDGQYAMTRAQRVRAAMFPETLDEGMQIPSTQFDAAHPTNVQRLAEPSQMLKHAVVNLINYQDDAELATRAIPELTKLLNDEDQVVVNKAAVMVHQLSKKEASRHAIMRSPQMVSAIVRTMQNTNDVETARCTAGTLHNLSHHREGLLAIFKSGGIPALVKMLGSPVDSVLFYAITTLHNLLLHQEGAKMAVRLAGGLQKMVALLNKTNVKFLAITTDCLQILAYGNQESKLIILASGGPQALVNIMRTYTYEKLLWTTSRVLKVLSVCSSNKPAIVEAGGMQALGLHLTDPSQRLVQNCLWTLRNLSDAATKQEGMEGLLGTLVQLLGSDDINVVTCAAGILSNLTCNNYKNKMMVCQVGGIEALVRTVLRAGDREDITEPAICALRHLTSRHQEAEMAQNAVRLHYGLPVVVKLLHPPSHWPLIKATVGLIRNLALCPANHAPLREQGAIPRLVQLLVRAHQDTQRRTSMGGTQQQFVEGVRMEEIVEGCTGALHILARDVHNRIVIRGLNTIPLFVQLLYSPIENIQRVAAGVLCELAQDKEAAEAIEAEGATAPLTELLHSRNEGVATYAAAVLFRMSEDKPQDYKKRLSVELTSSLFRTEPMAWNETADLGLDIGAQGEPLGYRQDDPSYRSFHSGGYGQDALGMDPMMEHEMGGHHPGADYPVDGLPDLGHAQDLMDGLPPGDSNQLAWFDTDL

Experiments:
[1] = molecular target: T1, ZNT9 (Zinc Transporter 9) (human (endogenous in HCT-116 and SW620)) (UniProt Q6PML9); test: co-IP; SW620 cells without or with KCTD9 overexpression; β-catenin immunoprecipitates blotted for ZNT9 and ZNT9 immunoprecipitates blotted for β-catenin
T1 sequence: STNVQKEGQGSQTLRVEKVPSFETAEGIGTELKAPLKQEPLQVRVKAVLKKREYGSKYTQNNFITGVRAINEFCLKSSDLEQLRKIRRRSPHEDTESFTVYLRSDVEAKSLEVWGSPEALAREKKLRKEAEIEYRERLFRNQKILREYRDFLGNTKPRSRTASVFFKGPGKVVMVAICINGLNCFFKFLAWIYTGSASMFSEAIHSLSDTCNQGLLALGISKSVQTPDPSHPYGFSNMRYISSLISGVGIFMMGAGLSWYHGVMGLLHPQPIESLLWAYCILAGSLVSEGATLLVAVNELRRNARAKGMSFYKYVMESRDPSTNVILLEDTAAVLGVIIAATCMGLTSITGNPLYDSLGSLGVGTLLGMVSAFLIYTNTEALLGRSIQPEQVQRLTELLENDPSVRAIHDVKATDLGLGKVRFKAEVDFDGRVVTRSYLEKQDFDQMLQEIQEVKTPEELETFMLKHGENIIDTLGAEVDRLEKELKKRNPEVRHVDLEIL

ZNT9 in the pACT vector = molecular target: T2, ZNT9 in the pACT vector (UniProt Q6PML9); test: two-hybrid; mammalian two-hybrid in SW620 cells: β-catenin in pBIND, ZNT9 in pACT, pG5luc reporter, read after 24 h; without or with KCTD9 overexpression
T2 sequence: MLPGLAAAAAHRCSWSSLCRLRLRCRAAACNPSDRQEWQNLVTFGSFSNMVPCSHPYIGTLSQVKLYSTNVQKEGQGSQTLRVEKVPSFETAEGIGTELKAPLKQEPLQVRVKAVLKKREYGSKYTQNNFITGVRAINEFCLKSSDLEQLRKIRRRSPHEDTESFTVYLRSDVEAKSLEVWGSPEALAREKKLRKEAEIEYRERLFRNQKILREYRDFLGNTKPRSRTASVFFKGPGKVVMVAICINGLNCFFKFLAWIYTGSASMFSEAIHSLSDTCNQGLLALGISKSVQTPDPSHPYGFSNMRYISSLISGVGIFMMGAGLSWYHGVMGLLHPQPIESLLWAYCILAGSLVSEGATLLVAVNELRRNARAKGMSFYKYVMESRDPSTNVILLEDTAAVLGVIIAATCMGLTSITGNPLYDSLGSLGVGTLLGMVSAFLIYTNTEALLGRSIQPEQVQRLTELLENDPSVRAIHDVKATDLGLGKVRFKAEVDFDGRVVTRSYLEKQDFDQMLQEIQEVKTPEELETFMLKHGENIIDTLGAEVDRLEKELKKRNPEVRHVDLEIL

[2] = molecular target: T1, ZNT9 (Zinc Transporter 9) (human (endogenous in HCT-116 and SW620)); test: co-IP; ZNT9 immunoprecipitation from HCT-116 cells, Western blot for endogenous KCTD9; IP lysis buffer 0.5% NP-40, 0.5% Triton-X100, 150 mM NaCl, 20 mM Tris-HCl pH 7.3, 4 °C
[3] = molecular target: β-catenin (human (endogenous in SW620)) (UniProt P35222); test: co-IP; SW620 cells without or with KCTD9 overexpression; β-catenin immunoprecipitates blotted for ZNT9 and ZNT9 immunoprecipitates blotted for β-catenin
[4] = molecular target: T3, Recombinant Flag-tagged (3xF)-KCTD9 (human) (UniProt Q7L273); test: co-IP; Flag immunoprecipitation of ectopically expressed 3xF-KCTD9 from HCT-116 cells, Western blot for ZNT9; IP lysis buffer 0.5% NP-40, 0.5% Triton-X100, 150 mM NaCl, 20 mM Tris-HCl pH 7.3, 4 °C
T3 sequence: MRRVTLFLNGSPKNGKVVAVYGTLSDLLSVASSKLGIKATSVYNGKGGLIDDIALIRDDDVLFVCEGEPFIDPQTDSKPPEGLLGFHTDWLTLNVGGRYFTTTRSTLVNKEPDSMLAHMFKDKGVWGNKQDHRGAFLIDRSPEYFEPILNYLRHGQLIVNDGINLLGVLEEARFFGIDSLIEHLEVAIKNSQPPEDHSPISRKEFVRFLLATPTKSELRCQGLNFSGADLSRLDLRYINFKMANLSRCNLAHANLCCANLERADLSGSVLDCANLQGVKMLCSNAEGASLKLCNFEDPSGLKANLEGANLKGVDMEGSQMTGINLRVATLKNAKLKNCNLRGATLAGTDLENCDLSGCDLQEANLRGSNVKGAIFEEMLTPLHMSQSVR

[5] = molecular target: β-catenin in the pBIND vector (UniProt P35222); test: two-hybrid; mammalian two-hybrid in SW620 cells: β-catenin in pBIND, ZNT9 in pACT, pG5luc reporter, read after 24 h; without or with KCTD9 overexpression

- binding [1]: binds
Molecule: β-catenin (from UniProt P35222 1-781)

- binding [2]: binds
B2: endogenous KCTD9 (protein, UniProt Q7L273 1-389)
chain: T3 sequence

The remaining lines, values behind:

B1: KCTD9, overexpressed (pCDH-KCTD9) (protein, UniProt Q7L273 1-389)
chain: T3 sequence
- binding [1]: binds
- binding (ZNT9 in the pACT vector): binds

B3: ZNT9 (Zinc Transporter 9) (protein, UniProt Q6PML9 68-568)
chain: T1 sequence
- binding [3]: binds
- binding [4]: binds

B4: ZNT9 in the pACT vector (protein, UniProt Q6PML9 1-568)
chain: T2 sequence
- binding [5]: binds
